PubChem BioAssay AID1259308, NCATS – 2017
Here is a random part of about 59,000 reagents. About 1,510 of them (2.6%) were called active. 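Calls use total luciferase alone and ignore viability, so some active siRNAs may act by altering cell number.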 Reagent sequences are not shown.

Aim: 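Knock-downs that increase output of a recombinant reporter protein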 (primary screen)
System: human HEK293 embryonic kidney cells stably expressing firefly luciferase (HEK-CMV-Luc2-Hygro)
Reagent: single siRNA against human genes, 0.8 pmol siRNA per well
Time to read-out: 72 h
Measured: 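Luciferase light (ONE-Glo) measured on one replicate plate set and viability (CellTiter-Glo) on the other, scaled to a negative control siRNA, with robust z-scores and luciferase per cell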
Direction: total luciferase, z-score and total luciferase, % of control: higher = more reporter protein produced; luciferase per cell, z-score: higher = more reporter output per viable cell; viable cells, % of control: higher = more viable cells
Rule for the call: 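An siRNA counts as active if its total luciferase robust z-score exceeds 3; genes with two or more such siRNAs out of three were retested with fresh siRNAs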
Calls: active = raised luciferase; inactive = no rise

target gene	PubChem SID	total luciferase, z-score	total luciferase, % of control	luciferase per cell, z-score	viable cells, % of control	activity call
E2F2 (GeneID 1870)	SID160757562	-0.0407	81.1	-0.477	103	inactive
E2F2 (GeneID 1870)	SID160757573	0.921	100	2.13	63.9	inactive
E2F2 (GeneID 1870)	SID160757584	-0.385	74.2	-0.148	86.2	inactive
ZNF441 (GeneID 126068)	SID160756388	2.83	138	5.46	36.7	inactive
ZNF441 (GeneID 126068)	SID160756389	0.0793	83.5	-0.0659	94.9	inactive
ZNF441 (GeneID 126068)	SID160756390	-0.101	79.9	1.17	65.5	inactive
PPIE (GeneID 10450)	SID160728449	-1.37	54.6	-1.25	84.7	inactive
PPIE (GeneID 10450)	SID160728450	-0.0972	80	-0.66	106	inactive
PPIE (GeneID 10450)	SID160728451	0.186	85.6	0.921	75	inactive
MX2 (GeneID 4600)	SID160777600	-0.19	78.1	-0.0499	88.4	inactive
MX2 (GeneID 4600)	SID160777601	0.0288	82.5	0.478	81.2	inactive
MX2 (GeneID 4600)	SID160777602	-0.215	77.6	-0.966	112	inactive
ATP6V1G1 (GeneID 9550)	SID160722479	-0.577	70.4	-0.358	86.4	inactive
ATP6V1G1 (GeneID 9550)	SID160722480	1.89	119	1.5	89.8	inactive
ATP6V1G1 (GeneID 9550)	SID160722481	0.192	85.7	0.785	77.9	inactive
RPUSD3 (GeneID 285367)	SID160731011	-0.53	71.3	-0.113	82.1	inactive
RPUSD3 (GeneID 285367)	SID160763591	-0.984	62.3	-1.25	96.7	inactive
RPUSD3 (GeneID 285367)	SID160763592	-0.496	72	-0.753	98.1	inactive
GOLGA7 (GeneID 51125)	SID160740125	1.4	110	2.78	59	inactive
GOLGA7 (GeneID 51125)	SID160740126	1.32	108	0.664	101	inactive
GOLGA7 (GeneID 51125)	SID160740127	-0.374	74.4	-0.855	104	inactive
ATP6V0A1 (GeneID 535)	SID160722228	0.75	96.8	-0.189	114	inactive
ATP6V0A1 (GeneID 535)	SID160722240	-0.111	79.7	0.122	86.2	inactive
ATP6V0A1 (GeneID 535)	SID160722250	0.282	87.5	-0.104	100	inactive

Just “viable cells, % of control”, for 7 of the entries above:
E2F2 (GeneID 1870) [SID160757573]: 63.9
E2F2 (GeneID 1870) [SID160757584]: 86.2
ZNF441 (GeneID 126068) [SID160756388]: 36.7
ZNF441 (GeneID 126068) [SID160756389]: 94.9
ZNF441 (GeneID 126068) [SID160756390]: 65.5
PPIE (GeneID 10450) [SID160728449]: 84.7
PPIE (GeneID 10450) [SID160728450]: 106

The listing continues:
target gene	PubChem SID	total luciferase, z-score	total luciferase, % of control	luciferase per cell, z-score	viable cells, % of control	activity call
ACTN2 (GeneID 88)	SID160732110	-0.234	77.2	-0.773	106	inactive
ACTN2 (GeneID 88)	SID160778199	-0.183	78.2	0.00562	87.3	inactive
ACTN2 (GeneID 88)	SID160778210	-0.115	79.6	-0.586	104	inactive
SMPX (GeneID 23676)	SID160732776	0.866	99.1	0.0863	108	inactive
SMPX (GeneID 23676)	SID160736793	0.319	88.2	-0.086	101	inactive
SMPX (GeneID 23676)	SID160736794	0.992	102	0.154	109	inactive
CD81 (GeneID 975)	SID160739833	0.198	85.8	-0.219	102	inactive
CD81 (GeneID 975)	SID160739844	0.771	97.2	-0.317	118	inactive
CD81 (GeneID 975)	SID160739854	2.05	123	1.15	101	inactive
CFAP221 (GeneID 200373)	SID160760844	0.118	84.2	0.369	85.4	inactive
CFAP221 (GeneID 200373)	SID160760845	0.717	96.1	1.21	78.1	inactive
CFAP221 (GeneID 200373)	SID160760846	1.42	110	1.36	86.2	inactive
ZER1 (GeneID 10444)	SID160728434	-0.997	62.1	-0.207	73.2	inactive
ZER1 (GeneID 10444)	SID160728435	-0.253	76.9	-0.561	99.6	inactive
ZER1 (GeneID 10444)	SID160728436	0.626	94.3	0.133	102	inactive
ASCL3 (GeneID 56676)	SID160745144	-2.64	29.5	-2.66	66.3	inactive
ASCL3 (GeneID 56676)	SID160745145	1.63	114	0.534	111	inactive
ASCL3 (GeneID 56676)	SID160745146	0.945	101	1.13	83.5	inactive
BLMH (GeneID 642)	SID160727561	0.0866	83.6	0.967	72.4	inactive
BLMH (GeneID 642)	SID160727627	-0.892	64.1	-1.16	97.3	inactive
BLMH (GeneID 642)	SID160727685	1.43	110	1.66	79.6	inactive
PDE12 (GeneID 201626)	SID160761006	-0.27	76.5	-0.166	89.3	inactive
PDE12 (GeneID 201626)	SID160761007	0.587	93.6	1.77	65.5	inactive
PDE12 (GeneID 201626)	SID160761008	-1.77	46.6	-2.56	102	inactive
BMP5 (GeneID 653)	SID160728280	0.295	87.8	0.0876	95.8	inactive
BMP5 (GeneID 653)	SID160728292	0.584	93.5	0.176	99.7	inactive
BMP5 (GeneID 653)	SID160728302	-0.153	78.8	-0.726	107	inactive
LEPR (GeneID 3953)	SID160731201	-0.67	68.6	-0.897	97	inactive
LEPR (GeneID 3953)	SID160776572	0.908	99.9	1.31	79.1	inactive
LEPR (GeneID 3953)	SID160776573	0.386	89.6	-0.423	112	inactive
LUM (GeneID 4060)	SID160776787	-0.827	65.4	-0.018	73.5	inactive
LUM (GeneID 4060)	SID160776789	-0.286	76.2	-0.00408	85.2	inactive
LUM (GeneID 4060)	SID160776790	1.01	102	0.332	104	inactive
